# Assay results as given in PubChem BioAssay AID504467 (National Center for Advancing Translational Sciences (NCATS), 2011).
# The whole screen tested about 330,000 compounds, of which about 7,700 (2.3%) were called active. The inconclusive results got no clear call from the source; some entries with a clear call stand among them for comparison. The call rests on the fitted dose curve; in most records, active means well fitted inhibition curve with a large enough effect; inconclusive means small, poorly fitted or top-dose-only effect, or effect the other way; inactive means flat fitted curve, though single readings scatter. Where the call is inconclusive, the potency comes from a doubtful curve fit.
# Test: qHTS screen for small molecules that inhibit ELG1-dependent DNA repair in human embryonic kidney (HEK293T) cells expressing luciferase-tagged ELG1; further: nearly all actives have a fitted effect of over 55% in size
# Conditions: HEK293T ELG1-luciferase reporter, luminescence, 16 h, DNA damage induced by 5-fluorouridine; activity change, negative = inhibition: at 46.1 µM (top of the series)
# Method in brief: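 HEK293T cells expressing luciferase-tagged ELG1 (2,000/well) received 5-Fluorouridine plus compound or DMSO for 16 hr at 37 °C. Luciferase was read by ONE-Glo luminescence after 30 min at room temperature.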
# On the % scale 0 is the no-effect control and ±100 the full control effect; potency means the concentration at half of the fitted maximal effect.
Structure (SMILES),Potency,"activity change, negative = inhibition"
O=C(Nc1cccc2nsnc12)c1ccc(-c2cccc(Cl)c2)o1,"inconclusive: 23.1 µM [activator, partial curve, poor fit]",
CN(C)CCCNS(=O)(=O)c1ccc(NC2CCCCCC2)c([N+](=O)[O-])c1,"inconclusive: 2.59 µM [inhibitor, full curve]",
COc1ccc(C(=O)Nc2ccc3c(c2)OCCO3)cc1,"inconclusive: 0.92 µM [activator, partial curve]",
CCOC(=O)c1cc(NC(=O)c2ccc(C)cc2)c(=O)oc1C(F)(F)F,"inconclusive: 29.1 µM [activator, single point]",
CCC(C)c1ccc(NC(=O)C2CCCN(c3ncccn3)C2)cc1 (configuration not stated),,inactive: 10.3%
Cc1ccc(C(=O)N/N=C\c2ccc(Br)o2)o1,,inactive: 12.2%
CCCC(=O)n1nc(NCc2ccc(OC)cc2)nc1NCc1ccc(OC)cc1,"inconclusive: 29.1 µM [inhibitor, partial curve, poor fit]",
O=C(c1ccc(N2CCCS2(=O)=O)cc1)N1CCN(c2ccc(F)cc2)CC1,"inconclusive: 29.1 µM [inhibitor, partial curve, poor fit]",
CCOC(=O)N1CCN(c2ccc(C(=O)c3ccccc3)cc2F)CC1,,inactive: -11.6%
O=C(CN1CCN(c2nc(-c3ccccc3)cs2)CC1)NCc1ccc2c(c1)OCO2,"inconclusive: 18.4 µM [inhibitor, partial curve, poor fit]",
COc1ccc(C(=O)OCC(=O)N2CCCCCC2)cc1S(=O)(=O)N1CCOCC1,,inactive: 1.82%
CCN(CC)C(=O)c1cccc(NC(=O)C2=COCCO2)c1,"inconclusive: 22.4 µM [activator, single point]",
CCOc1ccc2nc(NC(=O)CSc3nc(-c4ccccc4)c(C#N)c(=O)[nH]3)sc2c1,"inconclusive: 23.1 µM [activator, partial curve]",
Cc1nc(NCc2ccco2)c2oc3ccccc3c2n1,"inconclusive: 29.1 µM [activator, single point]",
COc1ccc2c(C)cc(N3CCOCC3)nc2c1,"inconclusive: 29.1 µM [activator, single point]",
Cc1ccc(NC(=O)NC2CCCCCCC2)cc1,"inconclusive: 3.66 µM [activator, full curve]",
COc1ccc(-n2ncc(C(=O)N3CCN(c4ccc(F)cc4)CC3)c2C)cc1,active: 20.6 µM,
COC(=O)C1(C(F)(F)F)N=C(N(C)C)OC(N(C)C)=N1,,inactive: 10%
C[C@]1(CO)CCC[C@@]2(C)C1CC[C@@H](CO)[C@@H]2CCc1ccoc1 (some centres not stated),,inactive: -1.46%
CC(C)c1ccc(NC(=O)c2ccc3c(c2)CCN3S(C)(=O)=O)cc1,"inconclusive: 29.1 µM [inhibitor, single point]",
COc1cc(/C=C2\SC(=Nc3ccccc3)NC2=O)cc(Cl)c1O,,inactive: 1.82%
CCOc1ccc(N(C(=O)c2snc(C(N)=O)c2N)C(C(=O)NCC2CCCO2)c2ccc(C)o2)cc1 (configuration not stated),,inactive: 14.6%
O=C(Cn1ccccc1=O)c1ccc(Cl)cc1,,inactive: 12%
O=C(CSc1nnc(-c2ccccn2)n1Cc1ccco1)c1ccc(Cl)cc1,,inactive: -6.64%

Structure (SMILES),Potency,"activity change, negative = inhibition"
COc1ccc(Nc2nnc(SCC(=O)c3cc4ccccc4o3)s2)cc1,"inconclusive: 0.259 µM [activator, full curve, poor fit]",
Cc1cccc(CN2CCC(Oc3ccc(C(=O)N4CCCCC4)cc3)CC2)c1,,inactive: -18.5%
O=C(COC(=O)c1ccc(Cl)nc1)Nc1ccc2c(c1)CCC2,"inconclusive: 29.1 µM [activator, partial curve, poor fit]",
CC(C(=O)O)n1c2ccccc2c2cn[nH]c(=O)c21 (configuration not stated),"inconclusive: 7.3 µM [activator, partial curve, poor fit]",
O=c1oc(CCO)cc2ccc(-c3ccc4[nH]ccc4c3)cc12,"inconclusive: 16.4 µM [activator, partial curve]",
COC(=O)c1cc(OC)c(OC)cc1NC(=S)N1CCN(C/C=C/c2ccccc2)CC1,"inconclusive: 25.9 µM [inhibitor, partial curve, poor fit]",
Cc1ccc(N(Cc2ccccc2)C(=O)c2cc(S(=O)(=O)N3CCOCC3)ccc2N2CCCC2)cc1,,inactive: -14.2%
COc1cc(C(C)=O)ccc1Oc1ncnc2c1cnn2-c1ccc(C)c(C)c1,,inactive: 16.2%
C[C@@H](NC(=O)C1(c2ccccc2)CCN(C(=O)OC(C)(C)C)CC1)C(=O)N[C@@H](Cc1ccccc1)C(=O)O,,inactive: 7.03%
COc1ccc(OC)c(S(=O)(=O)N2CCN(C34CC5CC(CC(C5)C3)C4)CC2)c1,,inactive: -4.01%
Cc1ccc(NC(=O)c2ccccc2NC(=O)c2cccs2)cc1,"inconclusive: 18.3 µM [activator, partial curve]",
Cn1c(CNC(=O)C(Cc2ccccc2)NC(=O)c2ccccc2F)cc(=O)n(C)c1=O (configuration not stated),,inactive: 1.36%
Cc1cccc2sc(NNC(=O)c3cc(=O)c4ccccc4o3)nc12,"inconclusive: 18.3 µM [activator, single point]",
Fc1ccccc1CSc1nc2ncccc2[nH]1,"inconclusive: 16.4 µM [activator, partial curve]",
Nc1ccc2nc(SCc3ccc([N+](=O)[O-])cc3)sc2c1,,inactive: -7.47%
COc1ccc(C(=S)N2CCN(c3ccccc3C)CC2)cc1,"inconclusive: 18.3 µM [inhibitor, single point]",
S=C(NCCc1ccccc1)N1CCn2cccc2C1c1cccnc1 (configuration not stated),"inconclusive: 18.3 µM [inhibitor, single point]",
CNC(=S)Nc1cc(OC)c(NC(=O)c2ccco2)cc1OC,,inactive: 7.96%
COC(=O)CCn1nc(-c2ccc(Cl)cc2)c2ccccc2c1=O,,inactive: 2.53%
CC(NCC(O)COc1ccc2ccccc2c1)c1ccccc1 (configuration not stated),,inactive: -20.5%
COc1ccccc1NC(=O)CSc1nnc(-c2ccncc2)o1,"inconclusive: 9.2 µM [activator, partial curve]",
Cc1ccccc1NC(=O)COC(=O)c1ccc(S(=O)(=O)N2CCCCCC2)cc1,"inconclusive: 29.1 µM [activator, single point]",
COc1ccc(CCN2C(=O)CC(NC34CC5CC(CC(C5)C3)C4)C2=O)cc1OC (configuration not stated),"inconclusive: 23.1 µM [inhibitor, single point]",
CC1CCC(C(C)C)C(OC(=O)Cn2nnc3c(cnn3-c3ccccc3)c2=O)C1 (configuration not stated),active: 16.4 µM,

# Laid out differently: 2 of the compounds above
Structure (SMILES)	Potency	activity change, negative = inhibition
COc1ccc(CCN2C(=O)CC(NC34CC5CC(CC(C5)C3)C4)C2=O)cc1OC (configuration not stated)	inconclusive: 23.1 µM [inhibitor, single point]	
CC1CCC(C(C)C)C(OC(=O)Cn2nnc3c(cnn3-c3ccccc3)c2=O)C1 (configuration not stated)	active: 16.4 µM	

# (cont.)

Structure (SMILES),Potency,"activity change, negative = inhibition"
COc1ccc(N(C(=O)c2snc(C(N)=O)c2N)C(C(=O)NCc2ccccc2)c2ccc(O)cc2)cc1OC (configuration not stated),,inactive: 3.44%
Clc1cc2nc[nH]c2cc1Cl,,inactive: 20.3%
Cn1c(=O)[nH]c(=O)c2c1nc(Sc1ncccn1)n2CCCc1ccccc1,"inconclusive: 18.4 µM [activator, partial curve]",
Cn1c(N2CCC(C(N)=O)CC2)nc2c1c(=O)n(Cc1cccc(Br)c1)c(=O)n2C,,inactive: -9.2%
CSc1ncc(CN2CCc3c([nH]c4ccccc34)C2c2cccc(O)c2)cn1 (configuration not stated),"inconclusive: 29.1 µM [inhibitor, single point]",
CCOc1ccc(S(=O)(=O)Nc2cccc(C(=O)N3CCN(c4cccc(OC)c4)CC3)c2)cc1,"inconclusive: 29.1 µM [inhibitor, single point]",
c1csc(-c2nc3ccccc3[nH]2)c1,"inconclusive: 16.4 µM [activator, partial curve]",
Cn1c(C(=O)c2ccncc2)cc2ccccc21,,inactive: -9.31%
CCN1C(=O)c2cccc3cccc1c23,"inconclusive: 23.1 µM [activator, single point]",
O=C(/C=C/c1ccco1)Nc1ccc2c(c1)OCCO2,"inconclusive: 2.06 µM [activator, full curve]",
CSC1=N/C(=C/c2cccnc2)C(=O)N1Cc1ccccc1,,inactive: 1.49%
COc1cc2c(C#N)c(N3CCc4ccccc4C3)nc(N)c2c(N)n1,"inconclusive: 6.51 µM [inhibitor, partial curve]",
CCCS(=O)(=O)C/C(N)=N/OC(=O)c1ccccc1Cl,"inconclusive: 16.4 µM [activator, single point]",
CCN1CCN(c2nc3ccccc3nc2C(C#N)C(=O)OCc2ccccc2)CC1 (configuration not stated),active: 18.4 µM,
Cc1ccc(S(=O)(=O)Nc2ccc(N3CCOCC3)cc2)cc1C,"inconclusive: 18.3 µM [inhibitor, partial curve, poor fit]",
COc1ccc(C(=O)OCC(=O)Nc2ccc(N3CCOCC3)cc2)cc1,"inconclusive: 11.2 µM [activator, partial curve]",
O=S(=O)(Nc1cccc2ncccc12)c1cccc(C(F)(F)F)c1,"inconclusive: 20.6 µM [inhibitor, single point]",
COc1ccccc1NC(=O)Cn1c(=O)n(CCc2c[nH]c3ccccc23)c(=O)c2cccnc21,"inconclusive: 0.116 µM [inhibitor, full curve, poor fit]",
COc1ccc(Cn2c(SCc3ccccc3C)nc3cc(OC)c(OC)cc3c2=N)cc1,"inconclusive: 5.8 µM [inhibitor, single point]",
CCC1=NN(C(=O)COc2ccccc2)C(O)(c2ccc(Br)cc2)C1 (configuration not stated),"inconclusive: 29.1 µM [inhibitor, single point]",
COC(=O)COc1ccc(C)cc1-n1nc2ccccc2n1,,inactive: 6.97%
O=C(NCc1ccco1)c1cc(-c2cccs2)nc2ccccc12,active: 14.6 µM,
COc1ccc(S(=O)(=O)N(C)C[C@H]2Oc3ccc(NC(=O)Nc4ccc5c(c4)OCO5)cc3C(=O)N([C@H](C)CO)C[C@@H]2C)cc1,,inactive: -13.1%
O=S(=O)(N/N=C/c1ccc2c(c1)OCCO2)c1ccccc1,"inconclusive: 1.84 µM [activator, partial curve, poor fit]",

# Pulled one by one from the list above:
Structure (SMILES),Potency,"activity change, negative = inhibition"
Cc1cccc(CN2CCC(Oc3ccc(C(=O)N4CCCCC4)cc3)CC2)c1,,inactive: -18.5%
Cc1ccc(C(=O)N/N=C\c2ccc(Br)o2)o1,,inactive: 12.2%
CCN1CCN(c2nc3ccccc3nc2C(C#N)C(=O)OCc2ccccc2)CC1 (configuration not stated),active: 18.4 µM,
